The text below walks through data of article PMC9547189.

Amino acid sequences for entries named in this document (tags omitted).
UniProt P46937: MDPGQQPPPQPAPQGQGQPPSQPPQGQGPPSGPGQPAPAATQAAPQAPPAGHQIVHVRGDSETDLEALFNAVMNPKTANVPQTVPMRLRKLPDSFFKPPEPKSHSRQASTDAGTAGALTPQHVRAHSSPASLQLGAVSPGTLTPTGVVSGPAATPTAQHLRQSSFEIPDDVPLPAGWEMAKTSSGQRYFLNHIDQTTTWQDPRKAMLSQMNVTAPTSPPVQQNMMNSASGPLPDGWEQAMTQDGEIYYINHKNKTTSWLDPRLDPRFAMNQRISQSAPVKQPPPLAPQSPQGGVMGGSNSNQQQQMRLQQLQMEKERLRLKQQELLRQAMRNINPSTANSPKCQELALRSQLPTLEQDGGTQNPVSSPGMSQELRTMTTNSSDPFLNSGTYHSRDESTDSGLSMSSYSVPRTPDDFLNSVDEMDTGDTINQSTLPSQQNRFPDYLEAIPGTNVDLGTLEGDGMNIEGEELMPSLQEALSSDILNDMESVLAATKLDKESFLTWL

No constants are given. Whether binding was seen depends on the method and setting. Binding seen in cells or lysates may run through a third protein. Some binding calls cover weakened binding; strength is not graded here.

Common to all, as to test: co-IP; reciprocal coIP of endogenous proteins from human placental tissue, PHTs and HTR8/SVneo cells; antibody on Protein A/G magnetic beads, Pierce IP Lysis Buffer, overnight at 4°C, western blotting
(In general: Immunoblotting shows a protein as a band on a membrane.)

For test [1], the target named is T1, mammalian sterile 20-like kinase 1 (MST1) (human (endogenous in placenta, PHTs and HTR8/SVneo)) (UniProt Q13043).
T1 sequence: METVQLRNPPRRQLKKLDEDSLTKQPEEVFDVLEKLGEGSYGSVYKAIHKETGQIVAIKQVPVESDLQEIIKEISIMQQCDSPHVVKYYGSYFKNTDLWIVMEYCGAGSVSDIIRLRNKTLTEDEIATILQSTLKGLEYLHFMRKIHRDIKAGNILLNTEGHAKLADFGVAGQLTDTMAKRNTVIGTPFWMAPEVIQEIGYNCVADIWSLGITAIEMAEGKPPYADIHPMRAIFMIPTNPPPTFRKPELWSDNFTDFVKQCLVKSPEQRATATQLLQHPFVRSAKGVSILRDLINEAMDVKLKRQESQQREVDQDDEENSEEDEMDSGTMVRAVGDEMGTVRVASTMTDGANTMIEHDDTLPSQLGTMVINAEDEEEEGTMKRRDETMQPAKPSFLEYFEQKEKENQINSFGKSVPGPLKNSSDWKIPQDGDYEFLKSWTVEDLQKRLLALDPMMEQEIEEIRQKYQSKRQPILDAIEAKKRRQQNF

The target in test [2] is T2, large tumor suppressor 1 (LATS1) (human (endogenous in placenta, PHTs and HTR8/SVneo)) (UniProt O95835).
T2 sequence: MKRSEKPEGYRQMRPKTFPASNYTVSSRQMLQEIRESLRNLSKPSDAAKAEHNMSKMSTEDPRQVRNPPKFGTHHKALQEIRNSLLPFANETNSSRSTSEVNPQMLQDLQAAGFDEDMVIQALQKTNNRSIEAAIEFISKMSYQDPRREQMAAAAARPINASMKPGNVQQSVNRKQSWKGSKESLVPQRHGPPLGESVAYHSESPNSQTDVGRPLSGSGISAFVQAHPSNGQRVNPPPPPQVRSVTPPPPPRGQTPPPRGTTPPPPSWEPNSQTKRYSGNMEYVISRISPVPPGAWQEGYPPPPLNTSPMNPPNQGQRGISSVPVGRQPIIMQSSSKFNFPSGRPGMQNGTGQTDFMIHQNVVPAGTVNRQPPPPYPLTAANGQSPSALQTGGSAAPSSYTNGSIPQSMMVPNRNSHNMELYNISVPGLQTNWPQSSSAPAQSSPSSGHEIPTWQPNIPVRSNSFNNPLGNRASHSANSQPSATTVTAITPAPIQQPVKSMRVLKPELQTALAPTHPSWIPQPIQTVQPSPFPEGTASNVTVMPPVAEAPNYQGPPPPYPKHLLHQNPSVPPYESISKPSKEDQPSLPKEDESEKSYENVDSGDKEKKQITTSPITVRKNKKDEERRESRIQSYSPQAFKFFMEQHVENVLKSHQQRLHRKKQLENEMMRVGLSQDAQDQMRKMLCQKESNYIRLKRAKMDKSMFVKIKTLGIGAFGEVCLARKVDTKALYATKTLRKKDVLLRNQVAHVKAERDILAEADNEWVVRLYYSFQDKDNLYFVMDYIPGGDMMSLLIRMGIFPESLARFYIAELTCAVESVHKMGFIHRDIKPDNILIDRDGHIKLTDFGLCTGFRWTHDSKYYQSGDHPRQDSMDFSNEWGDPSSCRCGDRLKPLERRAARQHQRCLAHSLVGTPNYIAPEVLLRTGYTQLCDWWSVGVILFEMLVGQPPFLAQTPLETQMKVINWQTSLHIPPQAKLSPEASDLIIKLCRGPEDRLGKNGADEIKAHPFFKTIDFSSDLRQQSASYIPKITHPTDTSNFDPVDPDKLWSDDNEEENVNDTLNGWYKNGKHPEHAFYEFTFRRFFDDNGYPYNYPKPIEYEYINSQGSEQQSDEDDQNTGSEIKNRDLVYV

Test [3] addresses Yes-associated protein 1 (YAP) (human (endogenous in placenta, PHTs and HTR8/SVneo)) (UniProt P46937).

B1: PP2A Bβ (protein, UniProt Q00005 1-443)
chain: MEEDIDTRKINNSFLRDHSYATEADIISTVEFNHTGELLATGDKGGRVVIFQREQESKNQVHRRGEYNVYSTFQSHEPEFDYLKSLEIEEKINKIRWLPQQNAAYFLLSTNDKTVKLWKVSERDKRPEGYNLKDEEGRLRDPATITTLRVPVLRPMDLMVEATPRRVFANAHTYHINSISVNSDYETYMSADDLRINLWNFEITNQSFNIVDIKPANMEELTEVITAAEFHPHHCNTFVYSSSKGTIRLCDMRASALCDRHTKFFEEPEDPSNRSFFSEIISSISDVKFSHSGRYIMTRDYLTVKVWDLNMENRPIETYQVHDYLRSKLCSLYENDCIFDKFECVWNGSDSVIMTGSYNNFFRMFDRNTKRDVTLEASRENSKPRAILKPRKVCVGGKRRKDEISVDSLDFSKKILHTAWHPSENIIAVAATNNLYIFQDKVN
Turning to B1, the binding entry was “no binding” in test [1], “binds” in test [2] and “no binding” in test [3].
